Results taken from the supplement of paper PMC10849652.
The list shows a part of the results.

The chains behind the UniProt entries cited, without tags or fusion partners. Where a name states a change or a piece, a line headed by the entry shows the natural chain unless it says otherwise.
UniProt Q86UA6: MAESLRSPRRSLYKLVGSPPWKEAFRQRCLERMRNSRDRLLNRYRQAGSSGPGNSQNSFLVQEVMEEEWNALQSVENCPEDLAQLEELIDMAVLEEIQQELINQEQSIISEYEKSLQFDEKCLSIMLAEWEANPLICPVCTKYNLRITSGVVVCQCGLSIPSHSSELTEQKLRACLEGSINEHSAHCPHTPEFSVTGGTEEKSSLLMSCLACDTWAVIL
UniProt Q96E14: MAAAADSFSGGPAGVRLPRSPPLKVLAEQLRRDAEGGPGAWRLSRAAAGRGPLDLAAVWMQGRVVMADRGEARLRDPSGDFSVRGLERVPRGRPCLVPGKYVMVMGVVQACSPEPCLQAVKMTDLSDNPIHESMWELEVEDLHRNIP
UniProt Q9Y4L5, whole entry, looked up: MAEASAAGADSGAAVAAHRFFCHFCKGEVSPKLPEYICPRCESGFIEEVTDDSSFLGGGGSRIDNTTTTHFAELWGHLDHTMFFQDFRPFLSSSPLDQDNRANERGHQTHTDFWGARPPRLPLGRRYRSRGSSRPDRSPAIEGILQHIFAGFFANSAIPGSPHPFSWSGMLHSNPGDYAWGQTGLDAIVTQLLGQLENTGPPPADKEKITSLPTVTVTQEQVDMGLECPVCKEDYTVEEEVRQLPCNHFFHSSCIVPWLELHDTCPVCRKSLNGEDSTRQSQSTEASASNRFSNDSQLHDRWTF
UniProt Q5M7Z0: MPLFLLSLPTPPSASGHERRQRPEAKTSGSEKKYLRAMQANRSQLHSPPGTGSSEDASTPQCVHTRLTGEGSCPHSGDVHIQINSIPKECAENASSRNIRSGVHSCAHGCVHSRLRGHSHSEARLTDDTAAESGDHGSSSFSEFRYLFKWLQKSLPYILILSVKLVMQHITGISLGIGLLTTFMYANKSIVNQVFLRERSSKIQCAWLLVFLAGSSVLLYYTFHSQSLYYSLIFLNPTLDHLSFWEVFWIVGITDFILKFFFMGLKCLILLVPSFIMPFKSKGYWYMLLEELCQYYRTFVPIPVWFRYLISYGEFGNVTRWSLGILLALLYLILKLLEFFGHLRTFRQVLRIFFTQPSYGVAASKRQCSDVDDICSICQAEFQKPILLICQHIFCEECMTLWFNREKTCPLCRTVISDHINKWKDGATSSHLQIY
UniProt Q99942: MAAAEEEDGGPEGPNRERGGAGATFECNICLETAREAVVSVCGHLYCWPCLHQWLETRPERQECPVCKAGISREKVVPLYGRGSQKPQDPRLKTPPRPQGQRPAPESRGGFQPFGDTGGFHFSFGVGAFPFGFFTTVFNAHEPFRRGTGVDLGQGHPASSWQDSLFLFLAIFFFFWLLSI
UniProt Q5TA31: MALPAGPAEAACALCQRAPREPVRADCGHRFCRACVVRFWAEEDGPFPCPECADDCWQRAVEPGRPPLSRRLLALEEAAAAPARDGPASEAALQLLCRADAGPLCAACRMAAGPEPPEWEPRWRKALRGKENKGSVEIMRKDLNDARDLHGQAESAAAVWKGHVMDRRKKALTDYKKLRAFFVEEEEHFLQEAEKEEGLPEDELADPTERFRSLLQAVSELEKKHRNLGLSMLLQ
UniProt P17081: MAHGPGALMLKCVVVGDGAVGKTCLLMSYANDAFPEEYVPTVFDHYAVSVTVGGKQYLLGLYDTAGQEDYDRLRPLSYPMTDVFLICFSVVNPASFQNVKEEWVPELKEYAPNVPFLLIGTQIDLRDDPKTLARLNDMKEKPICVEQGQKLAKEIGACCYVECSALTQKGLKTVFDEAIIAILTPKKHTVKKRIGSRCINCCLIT
UniProt Q9H4P4: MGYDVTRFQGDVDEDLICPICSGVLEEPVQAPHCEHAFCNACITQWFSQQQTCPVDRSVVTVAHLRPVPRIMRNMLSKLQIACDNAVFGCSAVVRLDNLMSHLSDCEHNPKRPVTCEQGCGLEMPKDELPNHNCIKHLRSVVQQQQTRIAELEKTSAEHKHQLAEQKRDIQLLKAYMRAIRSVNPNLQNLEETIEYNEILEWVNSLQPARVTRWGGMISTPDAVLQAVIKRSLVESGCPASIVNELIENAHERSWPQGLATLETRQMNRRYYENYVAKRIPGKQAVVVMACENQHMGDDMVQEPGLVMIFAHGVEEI
UniProt Q7L0Q8: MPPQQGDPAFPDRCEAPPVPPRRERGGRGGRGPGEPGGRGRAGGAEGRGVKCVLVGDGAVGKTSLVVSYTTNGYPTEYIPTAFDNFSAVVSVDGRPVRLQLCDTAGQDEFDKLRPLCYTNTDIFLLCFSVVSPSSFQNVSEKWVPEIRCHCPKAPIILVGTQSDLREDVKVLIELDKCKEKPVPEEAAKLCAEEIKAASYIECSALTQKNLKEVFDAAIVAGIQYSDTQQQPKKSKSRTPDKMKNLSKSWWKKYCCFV
UniProt Q9HAU8: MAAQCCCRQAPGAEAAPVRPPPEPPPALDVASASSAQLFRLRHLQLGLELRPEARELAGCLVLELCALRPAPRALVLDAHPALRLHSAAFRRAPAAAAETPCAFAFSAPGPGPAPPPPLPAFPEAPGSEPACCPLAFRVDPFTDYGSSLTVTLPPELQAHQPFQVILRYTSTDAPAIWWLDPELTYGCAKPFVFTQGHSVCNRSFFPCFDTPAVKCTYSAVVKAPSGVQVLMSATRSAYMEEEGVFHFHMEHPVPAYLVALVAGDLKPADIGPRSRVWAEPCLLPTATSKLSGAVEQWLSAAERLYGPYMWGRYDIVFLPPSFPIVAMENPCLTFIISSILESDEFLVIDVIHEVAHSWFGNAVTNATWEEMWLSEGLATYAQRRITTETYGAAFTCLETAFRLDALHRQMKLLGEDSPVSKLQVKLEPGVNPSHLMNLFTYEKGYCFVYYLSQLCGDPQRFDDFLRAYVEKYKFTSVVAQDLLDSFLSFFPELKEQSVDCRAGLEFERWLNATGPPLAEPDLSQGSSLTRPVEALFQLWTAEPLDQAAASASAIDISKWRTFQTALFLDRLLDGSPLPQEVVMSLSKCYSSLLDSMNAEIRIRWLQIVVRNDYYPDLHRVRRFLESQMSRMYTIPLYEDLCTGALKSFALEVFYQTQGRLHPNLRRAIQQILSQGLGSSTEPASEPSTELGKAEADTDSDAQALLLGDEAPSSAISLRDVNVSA
UniProt P60602: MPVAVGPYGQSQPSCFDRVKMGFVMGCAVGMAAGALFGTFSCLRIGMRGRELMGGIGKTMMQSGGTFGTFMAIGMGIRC
UniProt Q8TA86: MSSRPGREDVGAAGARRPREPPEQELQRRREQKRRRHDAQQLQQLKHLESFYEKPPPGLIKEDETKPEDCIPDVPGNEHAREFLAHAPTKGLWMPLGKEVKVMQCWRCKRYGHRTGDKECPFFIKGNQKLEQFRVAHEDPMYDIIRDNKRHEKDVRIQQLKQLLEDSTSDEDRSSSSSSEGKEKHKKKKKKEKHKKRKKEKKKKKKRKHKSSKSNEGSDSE
UniProt Q96LT9: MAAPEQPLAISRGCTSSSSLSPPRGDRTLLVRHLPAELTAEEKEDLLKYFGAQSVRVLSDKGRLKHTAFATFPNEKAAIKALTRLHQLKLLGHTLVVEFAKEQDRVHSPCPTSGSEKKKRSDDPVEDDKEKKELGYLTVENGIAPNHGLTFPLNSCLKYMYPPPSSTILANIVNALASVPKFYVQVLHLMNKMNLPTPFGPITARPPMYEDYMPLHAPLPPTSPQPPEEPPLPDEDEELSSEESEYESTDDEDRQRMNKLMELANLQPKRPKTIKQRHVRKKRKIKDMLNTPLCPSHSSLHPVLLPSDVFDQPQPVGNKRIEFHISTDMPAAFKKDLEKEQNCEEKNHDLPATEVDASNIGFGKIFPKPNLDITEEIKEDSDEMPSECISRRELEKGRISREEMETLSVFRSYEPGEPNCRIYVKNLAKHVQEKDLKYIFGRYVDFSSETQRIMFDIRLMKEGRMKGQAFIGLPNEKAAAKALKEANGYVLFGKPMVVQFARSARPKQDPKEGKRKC
UniProt P78317: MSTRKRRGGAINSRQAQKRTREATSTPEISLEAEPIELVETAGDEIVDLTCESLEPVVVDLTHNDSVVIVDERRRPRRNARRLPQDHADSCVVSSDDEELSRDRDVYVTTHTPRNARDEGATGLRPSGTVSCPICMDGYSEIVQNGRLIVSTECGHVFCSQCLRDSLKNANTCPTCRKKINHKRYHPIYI
UniProt Q86XS8: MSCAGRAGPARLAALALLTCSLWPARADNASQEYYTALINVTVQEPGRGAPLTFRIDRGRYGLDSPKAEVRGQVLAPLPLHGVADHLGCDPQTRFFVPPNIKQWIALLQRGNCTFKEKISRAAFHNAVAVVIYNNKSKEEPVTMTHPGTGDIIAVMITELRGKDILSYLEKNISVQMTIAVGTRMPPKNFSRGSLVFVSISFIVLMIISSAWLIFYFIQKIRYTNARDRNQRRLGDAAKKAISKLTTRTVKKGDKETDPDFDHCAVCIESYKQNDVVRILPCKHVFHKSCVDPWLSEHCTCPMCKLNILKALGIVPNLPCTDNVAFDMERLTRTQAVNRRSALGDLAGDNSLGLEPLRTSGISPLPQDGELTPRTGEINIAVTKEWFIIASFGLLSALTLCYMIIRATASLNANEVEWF
UniProt Q9HCK4: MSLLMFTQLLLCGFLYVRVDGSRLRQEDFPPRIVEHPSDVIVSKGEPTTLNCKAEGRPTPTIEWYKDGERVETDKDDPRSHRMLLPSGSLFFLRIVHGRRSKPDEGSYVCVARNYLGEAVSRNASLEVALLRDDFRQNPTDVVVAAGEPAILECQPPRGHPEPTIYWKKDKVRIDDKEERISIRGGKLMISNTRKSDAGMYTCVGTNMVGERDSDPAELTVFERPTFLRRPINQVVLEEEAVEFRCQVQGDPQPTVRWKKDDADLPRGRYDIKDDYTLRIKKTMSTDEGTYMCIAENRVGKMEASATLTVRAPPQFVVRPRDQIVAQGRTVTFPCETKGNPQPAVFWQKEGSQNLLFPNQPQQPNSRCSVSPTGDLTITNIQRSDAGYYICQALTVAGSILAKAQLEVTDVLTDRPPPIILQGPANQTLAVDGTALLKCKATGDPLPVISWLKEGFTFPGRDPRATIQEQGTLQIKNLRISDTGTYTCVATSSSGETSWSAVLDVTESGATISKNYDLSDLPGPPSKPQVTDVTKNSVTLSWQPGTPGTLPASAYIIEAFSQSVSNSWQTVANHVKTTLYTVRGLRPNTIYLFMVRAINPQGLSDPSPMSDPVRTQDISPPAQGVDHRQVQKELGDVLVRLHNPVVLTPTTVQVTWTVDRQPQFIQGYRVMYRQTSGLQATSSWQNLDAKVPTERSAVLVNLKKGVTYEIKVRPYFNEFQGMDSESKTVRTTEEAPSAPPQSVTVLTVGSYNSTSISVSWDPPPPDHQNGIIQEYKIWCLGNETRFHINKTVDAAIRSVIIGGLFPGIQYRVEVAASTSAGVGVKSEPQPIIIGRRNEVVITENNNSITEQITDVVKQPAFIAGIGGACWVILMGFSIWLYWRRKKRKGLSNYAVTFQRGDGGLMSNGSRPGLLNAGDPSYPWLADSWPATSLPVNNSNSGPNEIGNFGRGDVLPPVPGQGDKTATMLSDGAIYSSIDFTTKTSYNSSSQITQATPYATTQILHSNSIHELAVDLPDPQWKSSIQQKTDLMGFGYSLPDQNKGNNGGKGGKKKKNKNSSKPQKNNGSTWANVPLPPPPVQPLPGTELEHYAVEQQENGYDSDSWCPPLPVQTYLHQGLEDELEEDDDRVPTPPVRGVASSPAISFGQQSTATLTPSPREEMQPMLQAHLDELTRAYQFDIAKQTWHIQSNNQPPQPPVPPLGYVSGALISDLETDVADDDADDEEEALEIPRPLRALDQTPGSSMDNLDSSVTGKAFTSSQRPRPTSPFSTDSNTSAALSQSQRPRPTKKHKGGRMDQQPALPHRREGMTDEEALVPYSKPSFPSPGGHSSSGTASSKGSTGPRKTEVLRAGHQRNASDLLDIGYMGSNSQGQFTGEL
UniProt Q8IUC4: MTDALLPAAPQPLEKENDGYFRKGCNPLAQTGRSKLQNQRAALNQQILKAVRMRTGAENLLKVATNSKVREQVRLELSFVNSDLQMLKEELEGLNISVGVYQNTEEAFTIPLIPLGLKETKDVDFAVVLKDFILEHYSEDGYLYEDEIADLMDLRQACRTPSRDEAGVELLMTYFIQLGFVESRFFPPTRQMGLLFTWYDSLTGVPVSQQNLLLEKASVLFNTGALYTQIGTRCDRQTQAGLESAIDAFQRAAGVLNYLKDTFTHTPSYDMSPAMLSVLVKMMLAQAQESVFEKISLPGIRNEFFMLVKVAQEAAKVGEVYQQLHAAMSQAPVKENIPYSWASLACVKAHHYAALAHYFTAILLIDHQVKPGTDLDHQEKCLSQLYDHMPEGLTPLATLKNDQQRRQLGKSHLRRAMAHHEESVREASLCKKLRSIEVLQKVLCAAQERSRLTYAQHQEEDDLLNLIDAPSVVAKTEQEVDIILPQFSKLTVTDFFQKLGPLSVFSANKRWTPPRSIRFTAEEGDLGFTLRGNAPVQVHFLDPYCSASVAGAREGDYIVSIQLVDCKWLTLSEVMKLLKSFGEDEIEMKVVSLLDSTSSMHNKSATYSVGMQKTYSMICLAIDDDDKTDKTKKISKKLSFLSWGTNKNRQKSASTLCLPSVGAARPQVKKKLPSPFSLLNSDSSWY

Key:
Experiment in all cases: log2 fold change, soluble protein after heating vs DMSO (PISA); higher = thermal stabilisation; K562 lysate, 10 uM; active = over 0.2 and 3.5 SD of the protein, either way, in both replicates (recomputed)
[1] = compound: CS(=O)(=O)N1CCN(Cc2cc3nc(-c4cccc5[nH]ncc45)nc(N4CCOCC4)c3s2)CC1 [pictilisib]
Method in brief: (§1)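 Thermal stability, expressed as log-two fold change relative to solvent controls, is given from duplicates. Crude K562 extract in PBS pH 7.4 with 1 mM MgCl2, at 1 mg/mL protein, was treated with 10 μM compound for 30 min and heated in aliquots for 3 min across 48°C-58°C. After pooling, adjustment to 0.5% NP-40 at 4°C and centrifugation at 21,000xg for 90 min, supernatant protein was measured by TMTpro 16plex LC-MS/MS with channel sums equalised.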

[2] = compound: C[C@H](C1=CC=C(C=C1)C(=O)NC2=C3C=CNC3=NC=C2)N
Method in brief: as §1

[3] = compound: Cc1cc(Nc2cc(CN3CCOCC3)c3nc(C)c(Cc4ccc(Cl)cc4F)n3n2)n[nH]1 [gandotinib]
Method in brief: as §1

[4] = compound: Cc1cc(Nc2cc(N3CCN(C)CC3)nc(Sc3ccc(NC(=O)C4CC4)cc3)n2)n[nH]1 [tozasertib]
Method in brief: as §1

[5] = compound: Cc1ccc(NC(=O)c2ccc(CN3CC[C@H](N(C)C)C3)c(C(F)(F)F)c2)cc1Nc1nccc(-c2cncnc2)n1 [bafetinib]
Method in brief: as §1

[6] = compound: Cc1cccc(CC(=O)N2CCc3c2ccc(-c2cn(C)c4ncnc(N)c24)c3F)n1
Method in brief: as §1

[7] = compound: C[C@@H](Oc1cc(-c2cnn(C3CCNCC3)c2)cnc1N)c1c(Cl)ccc(F)c1Cl [crizotinib]
Method in brief: as §1

[8] = compound: C[C@H](Nc1ncnc2nc[nH]c12)c1cc2cccc(Cl)c2c(=O)n1-c1ccccc1 [duvelisib]
Method in brief: as §1

[9] = compound: Cc1ccc(-n2nc(C(C)(C)C)cc2NC(=O)Nc2ccc(OCCN3CCOCC3)c3ccccc23)cc1 [doramapimod]
Method in brief: as §1

[10] = compound: CS(=O)(=O)CCNCc1ccc(-c2ccc3ncnc(Nc4ccc(OCc5cccc(F)c5)c(Cl)c4)c3c2)o1 [lapatinib]
Method in brief: as §1

Row | Target | log2 fold change [1] | log2 fold change [2] | log2 fold change [3] | log2 fold change [4] | log2 fold change [5] | log2 fold change [6] | log2 fold change [7] | log2 fold change [8] | log2 fold change [9] | log2 fold change [10]
1 | RPAIN isoform 8 (UniProt Q86UA6) | inactive: -0.102 | inactive: 0.038 | inactive: -0.306 | inactive: 0.024 | inactive: 0.013 | inactive: -0.132 | – | – | – | –
2 | RMI2 (UniProt Q96E14) | – | – | – | inactive: -0.068 | – | – | inactive: 0.005 | inactive: 0.013 | inactive: -0.012 | –
3 | RNF115 (UniProt Q9Y4L5) | – | inactive: -0.164 | inactive: 0.059 | – | – | inactive: 0.041 | inactive: -0.018 | – | inactive: -0.039 | –
4 | RPGR (UniProt Q92834) | inactive: -0.051 | – | – | – | inactive: -0.106 | – | inactive: 0.061 | – | inactive: 0.036 | –
5 | RNFT1 (UniProt Q5M7Z0) | – | inactive: -0.442 | inactive: -0.166 | inactive: 0.101 | – | inactive: 0.218 | – | inactive: 0.17 | – | –
6 | RIOX1 (UniProt Q9H6W3) | – | inactive: 0.083 | inactive: -0.026 | inactive: -0.026 | – | inactive: -0.121 | inactive: 0.007 | inactive: 0.008 | inactive: -0.028 | inactive: -0.035
7 | RNF185 (UniProt Q96GF1) | inactive: -0.021 | inactive: 0.06 | inactive: -0.068 | – | inactive: -0.088 | inactive: 0 | – | – | – | inactive: 0.02
8 | RNF139 (UniProt Q8WU17) | – | inactive: -0.241 | inactive: 0.049 | – | – | inactive: 0.023 | inactive: -0.171 | – | inactive: -0.16 | –
9 | RHOXF2B (UniProt P0C7M4) | – | – | – | – | – | – | – | inactive: 0.055 | – | inactive: 0.059
10 | RNF138 (UniProt Q8WVD3) | inactive: 0.042 | inactive: -0.044 | inactive: -0.055 | inactive: -0.016 | inactive: 0.016 | inactive: 0.057 | inactive: -0.094 | inactive: -0.058 | inactive: 0.037 | –
11 | RNF5 (UniProt Q99942) | inactive: -0.062 | inactive: -0.005 | inactive: -0.151 | inactive: 0.155 | inactive: -0.003 | inactive: 0.061 | inactive: -0.072 | inactive: 0.019 | inactive: -0.032 | –
12 | RPL10, A0A087WV22 | inactive: 0.928 | – | – | – | inactive: 0.531 | – | inactive: 0.031 | inactive: 0.13 | inactive: 0.049 | –
13 | RNF187 (UniProt Q5TA31) | inactive: 0.01 | inactive: -0.046 | inactive: 0.08 | inactive: 0.035 | inactive: -0.013 | inactive: 0.019 | inactive: -0.006 | inactive: -0.021 | inactive: -0.044 | –
14 | RHOQ (UniProt P17081) | – | – | – | inactive: 0.09 | – | – | – | – | – | –
15 | RNF8 (UniProt O76064) | inactive: 0.031 | inactive: -0.007 | inactive: 0.055 | inactive: 0.206 | inactive: -0.017 | inactive: 0.002 | inactive: -0.021 | inactive: -0.043 | inactive: 0.025 | –
16 | RNF41 (UniProt Q9H4P4) | – | inactive: -0.243 | inactive: -0.201 | – | – | inactive: -0.177 | inactive: -0.01 | inactive: -0.025 | inactive: 0.045 | –
17 | RLIM (UniProt Q9NVW2) | inactive: -0.053 | – | – | – | inactive: -0.193 | – | inactive: -0.323 | – | inactive: -0.044 | –
18 | RHOU (UniProt Q7L0Q8) | – | active: -0.323 | inactive: -0.031 | inactive: 0.113 | – | inactive: 0.056 | inactive: -0.002 | inactive: 0.024 | inactive: 0.038 | inactive: -0.05

Reformatted: entries from further up
Row	Target	log2 fold change [1]	log2 fold change [2]	log2 fold change [3]	log2 fold change [4]	log2 fold change [5]	log2 fold change [6]	log2 fold change [7]	log2 fold change [8]	log2 fold change [9]	log2 fold change [10]
2	RMI2 (UniProt Q96E14)	–	–	–	inactive: -0.068	–	–	inactive: 0.005	inactive: 0.013	inactive: -0.012	–
4	RPGR (UniProt Q92834)	inactive: -0.051	–	–	–	inactive: -0.106	–	inactive: 0.061	–	inactive: 0.036	–
5	RNFT1 (UniProt Q5M7Z0)	–	inactive: -0.442	inactive: -0.166	inactive: 0.101	–	inactive: 0.218	–	inactive: 0.17	–	–
6	RIOX1 (UniProt Q9H6W3)	–	inactive: 0.083	inactive: -0.026	inactive: -0.026	–	inactive: -0.121	inactive: 0.007	inactive: 0.008	inactive: -0.028	inactive: -0.035
8	RNF139 (UniProt Q8WU17)	–	inactive: -0.241	inactive: 0.049	–	–	inactive: 0.023	inactive: -0.171	–	inactive: -0.16	–
9	RHOXF2B (UniProt P0C7M4)	–	–	–	–	–	–	–	inactive: 0.055	–	inactive: 0.059
10	RNF138 (UniProt Q8WVD3)	inactive: 0.042	inactive: -0.044	inactive: -0.055	inactive: -0.016	inactive: 0.016	inactive: 0.057	inactive: -0.094	inactive: -0.058	inactive: 0.037	–
11	RNF5 (UniProt Q99942)	inactive: -0.062	inactive: -0.005	inactive: -0.151	inactive: 0.155	inactive: -0.003	inactive: 0.061	inactive: -0.072	inactive: 0.019	inactive: -0.032	–
17	RLIM (UniProt Q9NVW2)	inactive: -0.053	–	–	–	inactive: -0.193	–	inactive: -0.323	–	inactive: -0.044	–

The list goes on:

Row | Target | log2 fold change [1] | log2 fold change [2] | log2 fold change [3] | log2 fold change [4] | log2 fold change [5] | log2 fold change [6] | log2 fold change [7] | log2 fold change [8] | log2 fold change [9] | log2 fold change [10]
19 | RHOBTB3 (UniProt O94955) | – | – | – | inactive: -0.161 | – | – | – | – | – | –
20 | RNPEPL1 (UniProt Q9HAU8) | – | inactive: -0.006 | inactive: -0.08 | – | – | inactive: 0.073 | inactive: 0.062 | inactive: 0.044 | inactive: -0.051 | inactive: 0.06
21 | ROMO1 (UniProt P60602) | – | – | – | inactive: 0.094 | – | – | inactive: -0.061 | inactive: -0.097 | inactive: 0.003 | inactive: 0.061
22 | RMND5B (UniProt Q96G75) | – | inactive: 0.077 | inactive: -0.037 | – | – | inactive: -0.14 | – | – | – | –
23 | RNF111 isoform 3 (UniProt Q6ZNA4) | – | – | – | – | – | – | inactive: -0.11 | – | inactive: 0.036 | –
24 | RNF10 isoform 2 (UniProt Q8N5U6) | – | – | – | inactive: -0.229 | – | – | inactive: 0.049 | inactive: 0.025 | inactive: -0.094 | inactive: -0.319
25 | RP9 (UniProt Q8TA86) | – | inactive: 0.147 | inactive: -0.051 | – | – | inactive: -0.071 | inactive: 0.04 | inactive: 0.07 | inactive: 0.008 | inactive: 0.001
26 | RNASEH1 (UniProt O60930) | – | inactive: -0.014 | inactive: -0.174 | – | – | inactive: 0.274 | – | – | – | –
27 | RPL22L1 (UniProt Q6P5R6) | inactive: -0.066 | – | – | inactive: -1.08 | inactive: -0.186 | – | – | inactive: 0.024 | – | –
28 | RNPC3 (UniProt Q96LT9) | – | inactive: 0.036 | inactive: 0.016 | – | – | inactive: -0.115 | inactive: -0.043 | inactive: 0.072 | inactive: -0.115 | inactive: -0.018
29 | RNF2 (UniProt Q99496) | – | active: 0.484 | inactive: -0.299 | inactive: 0.021 | – | active: -0.442 | inactive: 0.087 | inactive: 0.031 | inactive: -0.032 | –
30 | RNF4 (UniProt P78317) | inactive: -0.037 | inactive: -0.037 | inactive: 0.083 | inactive: -0.192 | inactive: -0.005 | inactive: 0.037 | inactive: -0.133 | – | inactive: 0.189 | –
31 | RNF130 (UniProt Q86XS8) | inactive: -0.054 | inactive: 0.284 | inactive: 0.016 | – | inactive: 0.029 | inactive: -0.006 | inactive: -0.296 | inactive: -0.093 | inactive: 0.25 | –
32 | RPL15, A0A2R8Y738 | inactive: -0.153 | – | – | – | inactive: -0.137 | – | – | – | – | inactive: -0.166
33 | ROBO2 isoform 3 (UniProt Q9HCK4) | – | – | – | – | – | – | inactive: -0.039 | – | inactive: 0.019 | inactive: 0.02
34 | RHPN2 (UniProt Q8IUC4) | – | – | – | inactive: -0.154 | – | – | inactive: -0.066 | – | inactive: 0.059 | inactive: -0.055
35 | RNASE4 (UniProt P34096) | – | – | – | inactive: 0.157 | – | – | inactive: 0.002 | inactive: -0.031 | inactive: 0 | inactive: 0.016
36 | RLF (UniProt Q13129) | – | inactive: 0.01 | inactive: -0.009 | – | – | inactive: 0.021 | inactive: -0.062 | inactive: 0.163 | inactive: -0.057 | inactive: -0.024
